# From article PMC4895818
# Results are given in words; binding and its absence hold for the method and conditions named. In cells and extracts the contact can be indirect. Binding calls can cover weak binding; strength is not graded here. For part of these data: Sequences can lack the tags named with a protein.
# How the values were obtained:
# [1] = biological target: T1, 3 × Flag-PsAvh262 (Phytophthora sojae) (UniProt E0W5H5); assay: co-IP; co-expression in N. benthamiana; 3 × Flag-PsAvh262 or mutant precipitated with anti-Flag agarose beads; co-precipitate detected by anti-GFP or anti-RFP blot
# T1 sequence: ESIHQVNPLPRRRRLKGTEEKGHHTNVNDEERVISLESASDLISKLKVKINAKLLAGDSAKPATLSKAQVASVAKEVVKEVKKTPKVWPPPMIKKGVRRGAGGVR
# [2] = biological target: T2, GST-PsAvh262 (Phytophthora sojae) (UniProt E0W5H5); assay: pull-down; semi-in vivo GST pull-down: GST-PsAvh262 from E. coli BL21 on glutathione-agarose beads, washed with PBS; extract of N. benthamiana leaves expressing GmBiP1-RFP or RFP added, 4 °C, 2 h; six washes with PBST; anti-RFP blot; only the target purified
# T2 sequence: T1 sequence
# [3] = biological target: T3, PsAvh262-YFPN without its signal peptide (Phytophthora sojae) (UniProt E0W5H5); assay: split reporter; BiFC: PsAvh262-YFPN and SP-YFPC-GmBiP1-HDEL co-expressed in N. benthamiana by agroinfiltration; YFP fluorescence by confocal microscopy
# T3 sequence: T1 sequence
# [4] = biological target: T4, PsAvh262 (construct of the experiment with OsBiP3, Supplementary Fig. 6c) (Phytophthora sojae) (UniProt E0W5H5); assay: co-IP; PsAvh262 with OsBiP3, Supplementary Fig. 6c; named among the Co-IP assays; constructs and beads not given
# T4 sequence: T1 sequence
# [5] = biological target: T5, GFP-PsAvh262 (N-terminal GFP-tagged PsAvh262 without the N-terminal secretion signal peptide 1-18 aa) (Phytophthora sojae) (UniProt E0W5H5); assay: co-IP; co-expression in N. benthamiana; 2 ml total protein extract with 20 ul GFP-Trap_A beads, 4 °C, 2 h; blot for RFP
# T5 sequence: T1 sequence
Substance,binding [1],further results
GmBiP1-RFP (RFP fused to the C-terminal HDEL sequence of GmBiP1) (soybean (Glycine max)),binds,binding [2]: binds
SP-YFPC-GmBiP1-HDEL (soybean (Glycine max)),,binding [3]: binds
OsBiP3 from rice (Os02g02410),,binding [4]: binds
GFP-GmBiP2 (soybean (Glycine max)),binds,
GFP-GmBiP3 (soybean (Glycine max)),binds,
NbBiP5-RFP (N. benthamiana),,binding [5]: binds
GFP-GmBiP4 (GFP attached to the N terminus of the signal peptide) (soybean (Glycine max)),binds,
GFP-GmBiP1 (GFP attached to the N terminus of the signal peptide) (soybean (Glycine max)),binds,
